These are yes or no findings as the source states them, for the method shown. In cells and extracts the contact can be indirect. These calls come from enrichment with a bait or labelling near it, and not all partners need be listed.
Molecular target: miniTurbo-OPTN_(1-577)-GFP (human) (UniProt Q96CV9)
Assay: proximity labelling

Protein sequences, listed by entry. Tags and fused reporters are not part of them.
UniProt Q96CV9: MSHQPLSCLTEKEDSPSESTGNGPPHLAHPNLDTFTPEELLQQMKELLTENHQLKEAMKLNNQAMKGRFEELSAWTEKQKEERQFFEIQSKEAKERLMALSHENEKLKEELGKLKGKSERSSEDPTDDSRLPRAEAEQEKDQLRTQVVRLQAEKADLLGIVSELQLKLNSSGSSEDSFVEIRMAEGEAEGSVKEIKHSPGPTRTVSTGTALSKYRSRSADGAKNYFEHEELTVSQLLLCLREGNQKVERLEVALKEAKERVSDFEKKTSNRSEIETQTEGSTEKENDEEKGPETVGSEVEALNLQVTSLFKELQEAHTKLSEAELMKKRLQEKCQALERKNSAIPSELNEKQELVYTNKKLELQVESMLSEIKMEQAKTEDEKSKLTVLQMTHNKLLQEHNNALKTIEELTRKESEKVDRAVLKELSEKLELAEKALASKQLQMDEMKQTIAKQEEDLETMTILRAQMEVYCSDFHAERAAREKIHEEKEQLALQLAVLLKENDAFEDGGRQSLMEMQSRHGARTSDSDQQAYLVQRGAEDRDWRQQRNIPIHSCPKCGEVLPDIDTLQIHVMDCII
UniProt O75381: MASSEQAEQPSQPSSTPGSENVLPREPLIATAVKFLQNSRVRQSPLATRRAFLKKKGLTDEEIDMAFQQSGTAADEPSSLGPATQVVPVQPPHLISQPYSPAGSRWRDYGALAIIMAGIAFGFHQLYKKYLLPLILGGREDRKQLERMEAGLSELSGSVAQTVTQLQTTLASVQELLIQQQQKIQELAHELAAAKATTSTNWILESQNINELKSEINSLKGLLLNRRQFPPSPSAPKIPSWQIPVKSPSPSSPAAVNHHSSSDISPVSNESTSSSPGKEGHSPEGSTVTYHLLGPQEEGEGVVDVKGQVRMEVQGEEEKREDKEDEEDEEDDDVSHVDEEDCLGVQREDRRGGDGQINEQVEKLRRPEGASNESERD
UniProt Q9UHD2: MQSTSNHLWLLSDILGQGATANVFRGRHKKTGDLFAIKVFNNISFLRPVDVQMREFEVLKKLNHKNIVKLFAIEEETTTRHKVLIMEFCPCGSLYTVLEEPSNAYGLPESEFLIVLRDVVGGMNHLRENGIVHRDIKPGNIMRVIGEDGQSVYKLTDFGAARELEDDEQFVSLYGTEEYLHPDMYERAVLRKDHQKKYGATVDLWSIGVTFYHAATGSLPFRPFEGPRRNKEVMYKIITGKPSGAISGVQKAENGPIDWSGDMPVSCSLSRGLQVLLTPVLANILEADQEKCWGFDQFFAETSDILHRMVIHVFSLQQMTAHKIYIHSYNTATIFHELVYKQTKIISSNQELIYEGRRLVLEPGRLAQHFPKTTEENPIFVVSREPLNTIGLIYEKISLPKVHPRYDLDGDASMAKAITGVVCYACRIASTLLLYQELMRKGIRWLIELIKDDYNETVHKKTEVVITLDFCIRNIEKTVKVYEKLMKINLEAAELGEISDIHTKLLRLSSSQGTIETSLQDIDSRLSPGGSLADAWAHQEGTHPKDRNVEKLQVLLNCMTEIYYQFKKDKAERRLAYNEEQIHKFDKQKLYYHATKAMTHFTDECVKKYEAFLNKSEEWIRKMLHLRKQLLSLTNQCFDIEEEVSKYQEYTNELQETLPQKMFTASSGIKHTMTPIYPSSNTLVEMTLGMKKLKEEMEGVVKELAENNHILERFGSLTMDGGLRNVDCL

binding | Substance
binds | endogenous PEX14 (from UniProt O75381 1-377)
binds | TBK1 (TANK-binding kinase 1) (from UniProt Q9UHD2 1-729)
